Results reported in paper PMC6858455.
Results are given in words; binding and its absence hold for the method and conditions named. In cells and extracts the contact can be indirect. Some entries that bind do so weakly or less than the wild type. One block for each binder: values may come before it.

Chains of the proteins cited; added tags and fusions are not shown.
UniProt Q96KS0: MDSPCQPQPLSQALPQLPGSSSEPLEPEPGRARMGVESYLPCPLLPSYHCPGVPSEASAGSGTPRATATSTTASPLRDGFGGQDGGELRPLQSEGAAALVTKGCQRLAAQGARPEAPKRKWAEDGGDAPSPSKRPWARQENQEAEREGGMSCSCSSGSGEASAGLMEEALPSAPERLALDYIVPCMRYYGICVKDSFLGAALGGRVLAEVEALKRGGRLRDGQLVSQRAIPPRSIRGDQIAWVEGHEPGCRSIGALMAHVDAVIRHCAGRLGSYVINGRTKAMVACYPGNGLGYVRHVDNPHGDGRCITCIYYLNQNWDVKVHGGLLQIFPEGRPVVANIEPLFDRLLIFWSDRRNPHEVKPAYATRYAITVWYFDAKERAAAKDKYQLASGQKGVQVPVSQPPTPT

How the values were obtained:
GST-EglN2 [1] = target: GST-EglN2 (UniProt Q96KS0); assay: pull-down; GST-EglN proteins on glutathione beads with in vitro translated ADSL in 500 μl NETN buffer, overnight, eight NETN washes, immunoblot; only the target purified
[2] = target: EglN2, endogenous (human (endogenous in MDA-MB-231)) (UniProt Q96KS0); assay: co-IP; reciprocal immunoprecipitation of endogenous EglN2 (anti-EglN2) or ADSL (anti-ADSL) with protein G sepharose from MDA-MB-231 cells treated with DMOG; immunoblot
GST-EglN2 [3] = target: GST-EglN2 (UniProt Q96KS0); assay: pull-down; GST-Ctrl or GST-EglN2 on glutathione beads with lysates of MDA-MB-231 cells treated overnight (hypoxia 1% O2 + 1 mM DMOG); overnight incubation, NETN washes, immunoblot; only the target purified
FLAG-EglN2-WT = FLAG-EglN2-WT (UniProt Q96KS0); assay: co-IP; immunoprecipitation of EglN2-WT or -H358A from lysates of MDA-MB-231 cells transfected with plasmids and treated overnight (hypoxia 1% O2, DMOG 1 mM); immunoblot

binding (GST-EglN2 [1]): binds
B1: in vitro translated ADSL (enzyme, UniProt P30566 1-484)
chain: MAAGGDHGSPDSYRSPLASRYASPEMCFVFSDRYKFRTWRQLWLWLAEAEQTLGLPITDEQIQEMKSNLENIDFKMAAEEEKRLRHDVMAHVHTFGHCCPKAAGIIHLGATSCYVGDNTDLIILRNALDLLLPKLARVISRLADFAKERASLPTLGFTHFQPAQLTTVGKRCCLWIQDLCMDLQNLKRVRDDLRFRGVKGTTGTQASFLQLFEGDDHKVEQLDKMVTEKAGFKRAFIITGQTYTRKVDIEVLSVLASLGASVHKICTDIRLLANLKEMEEPFEKQQIGSSAMPYKRNPMRSERCCSLARHLMTLVMDPLQTASVQWFERTLDDSANRRICLAEAFLTADTILNTLQNISEGLVVYPKVIERRIRQELPFMATENIIMAMVKAGGSRQDCHEKIRVLSQQAASVVKQEGGDNDLIERIQVDAYFSPIHSQLDHLLDPSSFTGRASQQVQRFLEEEVYPLLKPYESVMKVKAELCL

binding [2]: binds | binding (GST-EglN2 [3]): binds
B2: adenylosuccinate lyase (ADSL), endogenous (enzyme, UniProt P30566 1-484)
chain: B1 chain

binding (FLAG-EglN2-WT): binds
B3: ADSL (in the co-immunoprecipitation of transfected MDA-MB-231 cells, Fig. 1e) (enzyme, UniProt P30566 1-484)
chain: B1 chain
